# Measurements published in patent publication US6469168B1, “Piperazinylalkylthiopyrimidine derivatives, pharmaceutical compositions containing the same, and a process for the preparation of the active substance” (EGIS Gyógyszergyár Rt., priority 1999, dated 2002).
# Tested on: male NMRI mice
# Assay: Determination of the spontaneous motor activity
# Conditions: p.o., 60 minutes prior to the test, dose producing 50% of inhibition of motor activity
# Procedure: 2. Determination of the Spontaneous Motor Activity
# For the experiments, male NMRI mice weighing 20 to 25 g were used. Each treatment group consisted of 10 mice. The substance to be examined or the vehicle (i.e. a 0.4% solution of methylcellulose) was administered to the animals in a volume of 20 ml/kg as a suspension per os 60 minutes prior to the test. […] In case of anxiolytics, the value of the anxiolytic effect depends on the presence or absence of the sedative action (the latter is […]). For the experiments, an apparatus “digital motimeter” having 10 measuring places was used. The motion of the animals was indicated by the interruption of three parallel beams of infrared light at each measuring place, and the interruptions were recorded by the apparatus. The activity of one animal was determined at each measuring place. […] Int.
smiles,measurement,value
"CN1C(=O)CN=C(c2ccccc2)c2cc(Cl)ccc21 [diazepam, 7-chloro-1,3-dihydro-1-methyl-5-phenyl-2H-1,4-benzodiazepine-2-one, reference compound]",ID50,6.9 mg/kg
